In patent publication US20250177377A1 (priority 2022, published 2025):
At least one compound was matched to its structure with a doubt left.

Legend:
C57/B16 mice [1] = experiment: Morphine analgesic tolerance in hot plate test after simvastatin treatment; assay type: in vivo; conditions: simvastatin 10 mg/kg oral gavage once daily for 6 days, continued during 5 days of morphine
C57/B16 mice [2] = experiment: Naloxone-precipitated somatic withdrawal after escalating morphine; assay type: in vivo; conditions: simvastatin 10 mg/kg; morphine 40, 60, 80, 100 mg/kg daily; naloxone 1 mg/kg i.p. 3 hours after morphine

Structure (SMILES): CCC(C)(C)C(=O)O[C@H]1C[C@@H](C)C=C2C=C[C@H](C)[C@H](CC[C@@H]3C[C@@H](O)CC(=O)O3)[C@H]21 [simvastatin]
- development of analgesic tolerance to morphine (C57/B16 mice [1]): completely prevented the development of analgesic tolerance
- somatic withdrawal signs (C57/B16 mice [2]): substantially diminished somatic withdrawal signs
